PubChem BioAssay AID1224828 – NIAID – 2016

Screen: 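Knock-downs that increase or decrease LPS-induced p65 nuclear translocation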 (primary screen)
Cell system: mouse RAW264.7 G9 macrophage reporter cells (GFP-p65, Tnf promoter-mCherry)
Reagent: siRNA pool against mouse genes, 100 nM
Timing: 2 days siRNA transfection, then 40 min LPS before fixation
Challenge: LPS (Salmonella minnesota R595) at 10 ng/ml
Measurement: 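Microscopy ratio of nuclear to perinuclear-ring GFP-p65 signal, scaled to the plate median; gene score is the average of two replicate robust z-scores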
Direction: p65 translocation robust z-score: higher = more nuclear NF-kappaB p65 after LPS than the plate median; nuclear/cytoplasmic p65 ratio: higher = more nuclear NF-kappaB p65
Hit rule: 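Called active when z exceeds 3.3 or falls under -1.56 (median of Tlr4 controls), giving activity score of at least 50; no calls for control wells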
Meaning of the calls: active = hit (p65 shift raised or lowered); inactive = no clear change
In all, the deposit lists about 17,000 reagents; below is a part drawn at random. In the full data, 762 (4.5%) got an active call. 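Active calls include both raised and lowered p65 entry, mostly lowered; wells with fewer than 50 cells lack a z-score.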 Raw values are not corrected between plates. Some reagents were tested in more than one well and are listed for each.

Zbp1
- p65 translocation robust z-score: 0.4
- nuclear/cytoplasmic p65 ratio, rep 1: 1.47
- nuclear/cytoplasmic p65 ratio, rep 2: 1.37
- low cell count flag: enough cells to score
- outcome: inactive

Actl6a
- p65 translocation robust z-score: -0.21
- nuclear/cytoplasmic p65 ratio, rep 1: 1.18
- nuclear/cytoplasmic p65 ratio, rep 2: 1.31
- low cell count flag: enough cells to score
- outcome: inactive

Actl6a
- p65 translocation robust z-score: -0.74
- nuclear/cytoplasmic p65 ratio, rep 1: 1.47
- nuclear/cytoplasmic p65 ratio, rep 2: 1.53
- low cell count flag: enough cells to score
- outcome: inactive

Hrc
- p65 translocation robust z-score: -0.73
- nuclear/cytoplasmic p65 ratio, rep 1: 1.31
- nuclear/cytoplasmic p65 ratio, rep 2: 1.31
- low cell count flag: enough cells to score
- outcome: inactive

Mrps7
- p65 translocation robust z-score: 0.5
- nuclear/cytoplasmic p65 ratio, rep 1: 1.88
- nuclear/cytoplasmic p65 ratio, rep 2: 1.66
- low cell count flag: enough cells to score
- outcome: inactive

Supt6
- nuclear/cytoplasmic p65 ratio, rep 1: 1.19
- nuclear/cytoplasmic p65 ratio, rep 2: 1.69
- low cell count flag: fewer than 50 cells per well; well left out of scoring
- outcome: inactive

Cxcl14
- p65 translocation robust z-score: -0.74
- nuclear/cytoplasmic p65 ratio, rep 1: 1.32
- nuclear/cytoplasmic p65 ratio, rep 2: 1.33
- low cell count flag: enough cells to score
- outcome: inactive

2010013B10RIK
- nuclear/cytoplasmic p65 ratio, rep 1: 1.5
- nuclear/cytoplasmic p65 ratio, rep 2: 1.36
- low cell count flag: fewer than 50 cells per well; well left out of scoring
- outcome: inactive

Slc4a8
- nuclear/cytoplasmic p65 ratio, rep 1: 1.3
- nuclear/cytoplasmic p65 ratio, rep 2: 1.29
- low cell count flag: fewer than 50 cells per well; well left out of scoring
- outcome: inactive

Hnf4g
- p65 translocation robust z-score: -0.38
- nuclear/cytoplasmic p65 ratio, rep 1: 1.43
- nuclear/cytoplasmic p65 ratio, rep 2: 1.28
- low cell count flag: enough cells to score
- outcome: inactive

Itfg1
- p65 translocation robust z-score: -1.39
- nuclear/cytoplasmic p65 ratio, rep 1: 1.4
- nuclear/cytoplasmic p65 ratio, rep 2: 1.32
- low cell count flag: enough cells to score
- outcome: inactive

Wfdc2
- nuclear/cytoplasmic p65 ratio, rep 1: 1.53
- low cell count flag: fewer than 50 cells per well; well left out of scoring
- outcome: inactive

Mfsd8
- nuclear/cytoplasmic p65 ratio, rep 1: 1.52
- nuclear/cytoplasmic p65 ratio, rep 2: 1.53
- low cell count flag: fewer than 50 cells per well; well left out of scoring
- outcome: inactive

Tapt1
- nuclear/cytoplasmic p65 ratio, rep 1: 1.17
- nuclear/cytoplasmic p65 ratio, rep 2: 1.34
- low cell count flag: fewer than 50 cells per well; well left out of scoring
- outcome: inactive

A portion from the list above, for reference:
Mrps7
- p65 translocation robust z-score: 0.5
- nuclear/cytoplasmic p65 ratio, rep 1: 1.88
- nuclear/cytoplasmic p65 ratio, rep 2: 1.66
- low cell count flag: enough cells to score
- outcome: inactive

Supt6
- nuclear/cytoplasmic p65 ratio, rep 1: 1.19
- nuclear/cytoplasmic p65 ratio, rep 2: 1.69
- low cell count flag: fewer than 50 cells per well; well left out of scoring
- outcome: inactive
